Laboratory results from US20260077071A1, “Targeted Delivery of Theranostic Agents” (Peter MacCallum Cancer Institute, priority 2022, published 2026).
Like-named read-outs stand apart in the source and are kept apart here. At least one compound was matched to its structure with a doubt left. Square brackets hold non-standard residues; d marks the D form. Peptide text beside a SMILES is read from it. 1Nal = N[C@@H](Cc1cccc2ccccc12)C(=O)O; NMeNle = CCCC[C@H](NC)C(=O)O; Sar = CNCC(=O)O

Target: T1, human full-length CCK-2 receptor (Homo sapiens, UniProt P32239)
T1 construct: stably transfected to over-express the human full-length CCK-2 receptor (A431-CCK-2R); expressed in transfected cells
T1 sequence (P32239 1-447): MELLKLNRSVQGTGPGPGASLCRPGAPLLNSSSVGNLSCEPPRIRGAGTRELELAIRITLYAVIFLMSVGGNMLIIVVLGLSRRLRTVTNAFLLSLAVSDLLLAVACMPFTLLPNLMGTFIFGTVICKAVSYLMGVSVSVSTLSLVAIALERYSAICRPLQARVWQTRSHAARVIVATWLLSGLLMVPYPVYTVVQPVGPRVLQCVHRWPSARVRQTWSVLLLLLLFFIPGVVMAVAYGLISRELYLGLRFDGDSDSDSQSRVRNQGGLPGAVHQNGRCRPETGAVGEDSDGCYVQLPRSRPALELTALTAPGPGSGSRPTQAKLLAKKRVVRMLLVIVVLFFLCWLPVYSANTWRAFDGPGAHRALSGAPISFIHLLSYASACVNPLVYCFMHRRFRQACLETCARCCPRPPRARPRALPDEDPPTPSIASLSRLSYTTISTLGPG
Assay: Competitive ligand binding against [^177Lu]Lu-DOTA-CP04 in A431-CCK-2R cells
Description: CCK-2 receptor binding experiments were conducted using A431 (human epidermoid carcinoma) cells stably transfected to over-express the human full-length CCK-2 receptor (A431-CCK-2R). As a negative control, A431 cells stably transfected with an empty vector were analysed simultaneously (A431-EV). A431 cells were maintained in DMEM (Gibco, Australia) media supplemented with 10% foetal calf serum and 250 μg/mL G418 as described previously (Aloj L, et al., J Nucl Med., 2004, Mar; 45(3), 485-94). The affinity of peptides for the CCK-2R was evaluated using competitive binding assays against [^177Lu]Lu-DOTA-CP04 in A431-CCK-2R cells. Briefly, 48 h before the experiment cells were plated at a density of 650,000 cells per well in 6 well plates. On the day of the experiment the peptides were diluted in DMEM supplemented with 1% foetal calf serum to at least 7 different concentrations (0-400 nM) and approximately 50,000 cpm of [^177Lu]Lu-DOTA-CP04 was added to each dilution. Cells were washed twice in ice-cold binding buffer (DMEM supplemented with 1% foetal calf serum) and resuspended in 1.5 mL of the pre-prepared compound mix before being incubated at 37° C. for 1 h. Post-incubation the media was removed and kept for analysis (unbound fraction) and the cells were washed twice in ice-cold binding buffer, which was pooled with the unbound fraction. Finally, 1 M NaOH was added to the cells and allowed to incubate for 5 min before lysates were collected (bound fraction). A small volume of lysate was kept aside to determine protein concentration using the Pierce® BCA protein assay kit (Thermo Fisher, Australia). All samples were analysed using the Perkin Elmer 2480 Wizard2™ gamma counter (PerkinElmer, Massachusetts, USA) and were normalised according to protein concentration. Half-maximal inhibitory concentrations (IC50) were determined using nonlinear regression calculated using GraphPad Prism Software (GraphPad Software, California, USA).
The compounds were evaluated for their ability to disrupt the binding between CCK-2 receptor (CCK-2R) and [^177Lu]Lu-DOTA-CP04 using the methodology described above and compared to comparative example-2 (FIG. 2; Table 5).

[1] = earlier value of the radio-labelled complex / ^natGa DOTA-peptide form, previously assessed, read-out: affinity for CCK-2 receptor
[2] = substituted-phenylalanine peptides based on Cmp ex-1 (Table 3), read-out: IC50
[3] = D-Ala substituted peptides (Table 2), against [^177Lu]Lu-DOTA-CP04 in A431-CCK-2R cells, read-out: IC50

IC50 [1] [nM] | IC50 [2] [nM] | IC50 [3] [nM] | IC50 (modified peptides based on Peptide C (Table 4), read-out: IC50) [nM] | Structure (SMILES)
0.05 | 0.33 |  |  | CCCC[C@@H](C(=O)N[C@@H](CC(=O)O)C(=O)N[C@@H](Cc1cccc2ccccc12)C(N)=O)N(C)C(=O)[C@H](Cc1c[nH]c2ccccc12)NC(=O)CN(C)C(=O)[C@H](Cc1ccc(O)cc1)NC(=O)[C@H](C)NC(=O)[C@@H](CCC(=O)O)NC(=O)[C@@H](CCC(=O)O)NC(=O)[C@@H](CCC(=O)O)NC(=O)[C@@H](CCC(=O)O)NC(=O)[C@@H](CCC(=O)O)NC(=O)[C@H](N)CCC(=O)O [Cmp ex-1, reference compound] (H-[dE][dE][dE][dE][dE][dE]AY[Sar]W[NMeNle]D[1Nal]-NH2; N-terminus assumed)
 |  | 0.204 | 0.204 ± 0.015 | CCCC[C@@H](C(=O)N[C@@H](CC(=O)O)C(=O)N[C@@H](Cc1cccc2ccccc12)C(N)=O)N(C)C(=O)[C@H](Cc1c[nH]c2ccccc12)NC(=O)CN(C)C(=O)[C@H](Cc1ccc(O)cc1)NC(=O)[C@H](C)NC(=O)[C@@H](CCC(=O)O)NC(=O)[C@@H](CCC(=O)O)NC(=O)[C@@H](CCC(=O)O)NC(=O)[C@@H](C)NC(=O)[C@@H](CCC(=O)O)NC(=O)[C@H](N)CCC(=O)O [Peptide C] (H-[dE][dE][dA][dE][dE][dE]AY[Sar]W[NMeNle]D[1Nal]-NH2)
0.76 | 3.17 | 2.33 |  | CSCC[C@H](NC(=O)[C@H](Cc1c[nH]c2ccccc12)NC(=O)CNC(=O)[C@H](Cc1ccc(O)cc1)NC(=O)[C@H](C)NC(=O)[C@@H](CCC(=O)O)NC(=O)[C@@H](CCC(=O)O)NC(=O)[C@@H](CCC(=O)O)NC(=O)[C@@H](CCC(=O)O)NC(=O)[C@@H](CCC(=O)O)NC(=O)[C@@H](CCC(=O)O)NC(=O)CN1CCN(CC(=O)O)CCN(CC(=O)O)CCN(CC(=O)O)CC1)C(=O)N[C@@H](CC(=O)O)C(=O)N[C@@H](Cc1ccccc1)C(N)=O [CP04, reference compound]
 |  | 2.82 |  | CCCC[C@@H](C(=O)N[C@@H](CC(=O)O)C(=O)N[C@@H](Cc1cccc2ccccc12)C(N)=O)N(C)C(=O)[C@H](Cc1c[nH]c2ccccc12)NC(=O)CN(C)C(=O)[C@H](Cc1ccc(O)cc1)NC(=O)[C@H](C)NC(=O)[C@@H](CCC(=O)O)NC(=O)[C@@H](C)NC(=O)[C@@H](CCC(=O)O)NC(=O)[C@@H](CCC(=O)O)NC(=O)[C@@H](CCC(=O)O)NC(=O)[C@H](N)CCC(=O)O [E] (H-[dE][dE][dE][dE][dA][dE]AY[Sar]W[NMeNle]D[1Nal]-NH2)
 |  | 3.07 |  | CCCC[C@@H](C(=O)N[C@@H](CC(=O)O)C(=O)N[C@@H](Cc1cccc2ccccc12)C(N)=O)N(C)C(=O)[C@H](Cc1c[nH]c2ccccc12)NC(=O)CN(C)C(=O)[C@H](Cc1ccc(O)cc1)NC(=O)[C@H](C)NC(=O)[C@@H](CCC(=O)O)NC(=O)[C@@H](CCC(=O)O)NC(=O)[C@@H](CCC(=O)O)NC(=O)[C@@H](CCC(=O)O)NC(=O)[C@@H](CCC(=O)O)NC(=O)[C@@H](C)N [Peptide A] (H-[dA][dE][dE][dE][dE][dE]AY[Sar]W[NMeNle]D[1Nal]-NH2)
